# According to patent publication US20040102364A1 (priority 2001, published 2004):
# Assay: general procedure: Fmoc solid-phase peptide synthesis; Rink amide MBHA; PyBroP/DIEA; triphosgene/collidine for Fmoc-Cys(Acm)-OH
# Settings: whole synthesis, scale 0.55 mmol, cyclic, sequence written open
substance,measurement,setting,value
MAG3-PheC3-Cys-Phe-(D)Trp-Lys-Thr-Cys-PheN3-NH2,isolated yield,from resin,2.1%
same,crude mass,,191 mg
same,isolated mass,,12.2 mg
